PubChem BioAssay AID504764, Drosophila RNAi Screening Center, 2011

Screen: 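Genome-wide screen for regulators of Notch-driven gene expression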 (primary screen)
Cells: Drosophila Kc167 cells
Reagent: long dsRNA against Drosophila genes
Duration: about 5 days (4 days dsRNA, then 24 h after transfection)
Treatment: transfection of constitutively active membrane-tethered Notch lacking the extracellular domain, read 24 h later
Read-out: 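Firefly luciferase from an E(spl)m3 reporter with active Notch, plus control-promoter and uninduced reporter wells for normalisation; unnormalised counts, duplicate wells a and b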
Direction: induced reporter light, run 1, well a and induced reporter light, run 1, well b: higher = more light from the Notch target reporter with active Notch; control promoter light, run 1, well a and control promoter light, run 1, well b: higher = more light from the viral control promoter (cell number, transfection, viability); uninduced reporter light, run 1, well a: higher = more light from the Notch target reporter without active Notch
Rule for the call: 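Hit if the duplicate-averaged log2 ratio of induced to control-promoter light gives a plate-wise z beyond ±2, or induced to uninduced beyond ±1.8; weak-control or discordant-duplicate wells dropped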
Meaning of the calls: active = modifier hit (raised or lowered Notch signal); inactive = not a hit
The deposit covers about 22,000 reagents; shown is a random part of those that have a named target and a result. In the full data, 403 (1.9%) were called active. 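Unnormalised raw counts per well; ratio z-scores behind the hit calls and whether each hit raises or lowers signal are not deposited.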 Entries without a mark were called inactive. Not given: the amount of reagent.

With knock-down of disco (GeneID 32579) [DRSC20323], the screen gave induced reporter light, run 1, well a = 1.41e5; induced reporter light, run 1, well b = 98375; control promoter light, run 1, well a = 1.39e5; control promoter light, run 1, well b = 1.43e5; uninduced reporter light, run 1, well a = 14620. Against Est-P (GeneID 39393) [DRSC11163] the deposit lists induced reporter light, run 1, well a = 1.49e5; induced reporter light, run 1, well b = 1.42e5; control promoter light, run 1, well a = 1.66e5; control promoter light, run 1, well b = 1.21e5; uninduced reporter light, run 1, well a = 7525. With knock-down of Rab3-GEF (GeneID 32442) [DRSC19954], the screen gave induced reporter light, run 1, well a = 87855; induced reporter light, run 1, well b = 79525; control promoter light, run 1, well a = 1.05e5; control promoter light, run 1, well b = 73340; uninduced reporter light, run 1, well a = 12055. Rab3-GEF (GeneID 32442) [DRSC19955] showed induced reporter light, run 1, well a = 78890; induced reporter light, run 1, well b = 89570; control promoter light, run 1, well a = 86160; control promoter light, run 1, well b = 87080; uninduced reporter light, run 1, well a = 15075. Rab3-GEF (GeneID 32442) [DRSC19956] scored induced reporter light, run 1, well a = 14355; induced reporter light, run 1, well b = 10175; control promoter light, run 1, well a = 10165; control promoter light, run 1, well b = 9650; uninduced reporter light, run 1, well a = 5060. Depletion of CG14903 (GeneID 42014) [DRSC15024] gave: induced reporter light, run 1, well a = 2.89e5; induced reporter light, run 1, well b = 2.38e5; control promoter light, run 1, well a = 2.37e5; control promoter light, run 1, well b = 2.53e5; uninduced reporter light, run 1, well a = 19990.

With knock-down of Or2a (GeneID 31207) [DRSC18690] the results were induced reporter light, run 1, well a = 1.16e5; induced reporter light, run 1, well b = 1.26e5; control promoter light, run 1, well a = 2.08e5; control promoter light, run 1, well b = 2.30e5; uninduced reporter light, run 1, well a = 8610. Against Msr-110 (GeneID 38629) [DRSC11227], the entry reads induced reporter light, run 1, well a = 60155; induced reporter light, run 1, well b = 1.29e5; control promoter light, run 1, well a = 90735; control promoter light, run 1, well b = 42070; uninduced reporter light, run 1, well a = 13865. With knock-down of SK (GeneID 31456) [DRSC17387] the results were induced reporter light, run 1, well a = 90495; induced reporter light, run 1, well b = 93750; control promoter light, run 1, well a = 95020; control promoter light, run 1, well b = 86215; uninduced reporter light, run 1, well a = 6495. Silencing of SK (GeneID 31456) [DRSC17751] came out at: induced reporter light, run 1, well a = 2.11e5; induced reporter light, run 1, well b = 1.84e5; control promoter light, run 1, well a = 3.20e5; control promoter light, run 1, well b = 3.35e5; uninduced reporter light, run 1, well a = 14032. Knock-down of SK (GeneID 31456) [DRSC17887] resulted in: induced reporter light, run 1, well a = 1.74e5; induced reporter light, run 1, well b = 1.55e5; control promoter light, run 1, well a = 3.38e5; control promoter light, run 1, well b = 2.43e5; uninduced reporter light, run 1, well a = 11730. Knock-down of SK (GeneID 31456) [DRSC17888] came out at: induced reporter light, run 1, well a = 1.31e5; induced reporter light, run 1, well b = 1.42e5; control promoter light, run 1, well a = 2.69e5; control promoter light, run 1, well b = 2.17e5; uninduced reporter light, run 1, well a = 10880.

Knock-down of SK (GeneID 31456) [DRSC18353] resulted in: induced reporter light, run 1, well a = 2.23e5; induced reporter light, run 1, well b = 1.87e5; control promoter light, run 1, well a = 2.65e5; control promoter light, run 1, well b = 2.20e5; uninduced reporter light, run 1, well a = 15230. Against meigo (GeneID 42510) [DRSC15877] the deposit lists induced reporter light, run 1, well a = 1.88e5; induced reporter light, run 1, well b = 1.79e5; control promoter light, run 1, well a = 2.05e5; control promoter light, run 1, well b = 2.02e5; uninduced reporter light, run 1, well a = 13142. Against CG14329 (GeneID 42116) [DRSC14808], the values are induced reporter light, run 1, well a = 2.11e5; induced reporter light, run 1, well b = 2.23e5; control promoter light, run 1, well a = 2.44e5; control promoter light, run 1, well b = 2.46e5; uninduced reporter light, run 1, well a = 19535. After knock-down of Gtpx (GeneID 38413) [DRSC08221], the screen gave induced reporter light, run 1, well a = 1.32e5; induced reporter light, run 1, well b = 1.29e5; control promoter light, run 1, well a = 1.01e5; control promoter light, run 1, well b = 45630; uninduced reporter light, run 1, well a = 14085. Against GNBP1 (GeneID 40034) [DRSC11169], the entry reads induced reporter light, run 1, well a = 2.08e5; induced reporter light, run 1, well b = 2.02e5; control promoter light, run 1, well a = 2.90e5; control promoter light, run 1, well b = 1.94e5; uninduced reporter light, run 1, well a = 9165. Depletion of CCKLR-17D3 (GeneID 32864) [DRSC20015] gave: induced reporter light, run 1, well a = 91880; induced reporter light, run 1, well b = 96365; control promoter light, run 1, well a = 72940; control promoter light, run 1, well b = 99575; uninduced reporter light, run 1, well a = 11835.

After knock-down of CCKLR-17D3 (GeneID 32864) [DRSC20017], the screen gave induced reporter light, run 1, well a = 61335; induced reporter light, run 1, well b = 77395; control promoter light, run 1, well a = 72610; control promoter light, run 1, well b = 90995; uninduced reporter light, run 1, well a = 11278.

As entered above.
Under “control promoter light, run 1, well a”, disco (GeneID 32579) [DRSC20323] is entered as 1.39e5
Gtpx (GeneID 38413) [DRSC08221], control promoter light, run 1, well b: 45630
